In patent publication US9560850B2, “Tetrazolinone compound and use thereof” (SUMITOMO CHEMICAL COMPANY, LIMITED, priority 2012, dated 2017):
Some of these results come from one statement about several compounds together.

Tests used:
Assay type in all cases: in vivo
[1] = test system: Pyrenophora teres; assay: Barley net blotch control test, foliar spray on barley (Test Examples 3, 9); details: Test Example 3, 500 ppm, barley (Mikamo Golden), inoculated 2 days after application
[2] = test system: Rhynchosporium secalis; assay: Barley scald control test, foliar spray on barley (Test Example 14); details: 200 ppm, barley (Mikamo Golden), inoculated 2 days after application
[3] = test system: Sphaerotheca fuliginea; assay: Cucumber powdery mildew control test, foliar spray (Test Examples 6, 12); details: Test Example 6, 500 ppm, cucumber (Sagami hanjiro), examined after 8 days
[4] = test system: Septoria tritici; assay: Wheat Septoria control test, foliar spray on wheat (Test Examples 5, 11); details: Test Example 5, 500 ppm, wheat (Apogee), inoculated 4 days after application

Measured: infected area of the treated plant relative to that of the untreated plant

CCc1cccc(-n2nnn(C)c2=O)c1COc1ccc(C(C)=NOC)cc1C(F)(F)F [Compound 51, 1-{2-[2-methyl-4-(1-methoxyimino-ethyl)-phenoxymethyl]-3-ethyl-phenyl}-4-trifluoromethyl-1,4-dihydrotetrazol-5-one]
≤ 30%: [1]

CON=C(C)c1cc(C)c(OCc2c(C3CC3)cccc2-n2nnn(C)c2=O)cc1C [Compound 52, 1-{2-[2,5-dimethyl-4-(1-methoxyimino-ethyl)-phenoxymethyl]-3-methoxy-phenyl}-4-methyl-1,4-dihydrotetrazol-5-one]
≤ 30%: [1]

CON=C(c1ccc(OCc2c(C)cccc2-n2nnn(C)c2=O)c(C)c1)C1CCCCC1 [Compound 66, 1-{2-[2-methyl-4-(1-methoxyimino-1-cyclohexyl-methyl)-phenoxymethyl]-3-methyl-phenyl}-4-methyl-1,4-dihydrotetrazol-5-one]
≤ 30%: all assays above

CC(=NOCc1c(F)c(F)c(F)c(F)c1F)c1ccc(OCc2c(C)cccc2-n2nnn(C)c2=O)c(C)c1 [Compound 68, 1-{2-[2-methyl-4-{1-(2,3,4,5,6-pentafluorobenzyloxy)imino-ethyl)-phenoxymethyl]-3-methylphenyl}-4-methyl-1,4-dihydrotetrazol-5-one]
≤ 30%: all assays above

CON=C(c1ccccc1)c1ccc(OCc2c(OC)cccc2-n2nnn(C)c2=O)c(C)c1 [Compound 69, 1-{2-[2-methyl-4-(1-methoxyimino-1-phenyl-methyl)-phenoxymethyl]-3-methoxy-phenyl}-4-methyl-1,4-dihydrotetrazol-5-one]
≤ 30%: all assays above

CON=C(c1ccccc1)c1ccc(OCc2c(C3CC3)cccc2-n2nnn(C)c2=O)c(C)c1 [Compound 70, 1-{2-[2-methyl-4-(1-methoxyimino-1-phenyl-methyl)-phenoxymethyl]-3-cyclopropyl-phenyl}-4-methyl-1,4-dihydrotetrazol-5-one]
≤ 30%: all assays above

CON=C(c1ccc(Cl)cc1)c1ccc(OCc2c(C)cccc2-n2nnn(C)c2=O)c(C)c1 [Compound 74, 1-{2-[2-methyl-4-(1-methoxyimino-1-(4-chlorophenyl)-methyl)-phenoxymethyl]-3-methyl-phenyl}-4-methyl-1,4-dihydrotetrazol-5-one]
≤ 30%: [1] | [2] | [3]

CC(=NOCc1cccc(Cl)c1)c1ccc(OCc2c(C)cccc2-n2nnn(C)c2=O)c(C)c1 [Compound 75]
≤ 30%: [1] | [2] | [3]

CC(=NOCc1cccc(C(F)(F)F)c1)c1ccc(OCc2c(C)cccc2-n2nnn(C)c2=O)c(C)c1 [Compound 77]
≤ 30%: [2] | [3] | [4]
